Data as given in PubChem BioAssay AID720505 (Drosophila RNAi Screening Center, 2013)
Aim: 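Fly regulators or components of the CRAC channel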 (primary screen). Cells: Drosophila S2R+ cells. Knock-down reagent: long dsRNA against Drosophila genes. Treatment: thapsigargin (2 µM) in calcium-free buffer to empty internal stores, then 2 mM calcium added back. Read-out: 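Fluo-4 signal in 384-well plates read on a FLIPR after thapsigargin (2 µM, calcium-free) store depletion and 2 mM calcium add-back; unnormalised mean endpoint per well; screen run twice, selected wells retested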. Reading the numbers: calcium signal and retest calcium signal: higher = more calcium entry after store depletion. Call rule: 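About 1500 genes called as lowering calcium entry, by varying amounts, judged against per-plate control wells with STIM1 as positive and Rho1 as negative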. Calls: active = called as lowering calcium entry; inactive = not called.
In all, the deposit lists about 20,000 reagents; below is a random part of those that have a named target and a result. In the full data, about 2,100 (10%) got an active call. 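Raw plate signals without normalisation; calls rest on control-based scores that were not deposited; replicate 2 separates called from uncalled poorly.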 Unmarked entries are inactive. Not given: the amount of reagent, the time to read-out.

CG8188 [SID104199882] showed calcium signal, replicate 1 = 63.6 (active); calcium signal, replicate 2 = 107; retest calcium signal, replicate 1 = 123; retest calcium signal, replicate 2 = 112.
Depletion of CG12998 [SID104199310] came out at: calcium signal, replicate 1 = 84.1; calcium signal, replicate 2 = 128.
dind (diamond) [SID104196086] scored calcium signal, replicate 1 = 107; calcium signal, replicate 2 = 189.
For CG3650 [SID104184193], the entry reads calcium signal, replicate 1 = 148; calcium signal, replicate 2 = 165.
Against CG31493 [SID104192375] the deposit lists calcium signal, replicate 1 = 102; calcium signal, replicate 2 = 125.
Against CG14367 [SID104194621], the values are calcium signal, replicate 1 = 139; calcium signal, replicate 2 = 198.
After knock-down of CG14304 [SID104194575], the record shows calcium signal, replicate 1 = 182; calcium signal, replicate 2 = 112.
Set2 (SET domain containing 2) [SID104199557] showed calcium signal, replicate 1 = 141; calcium signal, replicate 2 = 133.
With knock-down of CG42264 [SID104197866], the screen gave calcium signal, replicate 1 = 212; calcium signal, replicate 2 = 98.2.
Knock-down of CG42264 [SID104197867] resulted in: calcium signal, replicate 1 = 154; calcium signal, replicate 2 = 118.
Knock-down of CG34458 [SID104186717] came out at: calcium signal, replicate 1 = 158; calcium signal, replicate 2 = 208.
Depletion of CG8260 [SID104199890] came out at: calcium signal, replicate 1 = 93.8; calcium signal, replicate 2 = 151.

An excerpt from above, limited to “calcium signal, replicate 2”:
dind (diamond) [SID104196086]	189
CG3650 [SID104184193]	165
